# Measurements taken from the supplement of paper PMC9254222.
# In all, about 1,100 compounds were measured (“Wnt reporter firefly/Renilla luciferase ratio relative to plate median”: median about 1.1, highest 2% from about 1.6 on). The list shows a part of the results, in another mix than the full data.
# Test system: HEK293T (UBE3A T485A transfected, BAR Wnt reporter)
# Assay: Wnt reporter firefly/Renilla luciferase ratio relative to plate median (fold (linear ratio)); higher = more Wnt/beta-catenin reporter activation
# Conditions: 24 h
# Procedure, shortened: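 Chemicals were robotically dosed at 0.01–100 uM for 24 h onto HEK293T cells, starting four hours after transfection with a BAR firefly luciferase Wnt reporter, TK-Renilla and an expression plasmid. The cells had been plated at 4500 cells/well in DMEM with 10% FBS at 37°C and 5% CO2. Following a Dual-Glo luciferase readout, the firefly/Renilla ratio served as the Wnt activity measure and raw Renilla as the cell health measure, both median-centred on each plate. Each value is the mean of four biological replicates.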
SMILES,Wnt reporter firefly/Renilla luciferase ratio (concentration: 0.1 uM),Wnt reporter firefly/Renilla luciferase ratio (concentration: 1 uM),Wnt reporter firefly/Renilla luciferase ratio (concentration: 10 uM),Wnt reporter firefly/Renilla luciferase ratio (concentration: 100 uM),Wnt reporter firefly/Renilla luciferase ratio (concentration: 0.01 uM)
CN(C)c1ccc(N=NS(=O)(=O)[O-])cc1.[Na+] [Fenaminosulf],1.24,0.87,1.16,0.855,
Cn1cc[nH]c1=S [Methimazole],0.227,0.986,0.426,0.499,
Cn1cnc([N+](=O)[O-])c1Sc1ncnc2nc[nH]c12 [Azathioprine],1.26,0.941,0.761,,
Cc1ccc(O)cc1 [p-Cresol],0.988,1.1,1.02,1.39,
CC(=O)S[C@H](C(=O)N[C@H]1Cc2ccccc2[C@H]2CCC[C@@H](C(=O)O)N2C1=O)C(C)C [Ilepatril],0.975,0.925,0.894,0.899,
C[C@]12CC[C@@H]3c4ccc(O)cc4CC[C@H]3[C@@H]1CCC2=O [Estrone],1.06,1.03,0.835,0.517,
OCCNCCO [Diethanolamine],1.17,0.992,1.4,2.49,
CCOC(=O)O[C@H](C)OC(=O)c1ccc2c(c1)cc(C(=O)NC1CCN(C(C)C)CC1)n2Cc1cc(-c2ccc(Cl)s2)on1.Cl,1.02,1.13,1.14,,
Cn1c(=O)c2[nH]cnc2n(C)c1=O [Theophylline],1.11,0.908,1.01,1.11,
CCOC(=O)C(C)(C)Oc1ccc(Cl)cc1 [Clofibrate],1.38,1.01,1.31,1.08,
"CC(C)CCCCCCOC(=O)C1CCCCC1C(=O)OCCCCCCC(C)C (stereo unspecified) [Diisononyl cyclohexane-1,2-dicarboxylate]",1.08,1.19,1.04,1.33,
NC(=O)N/N=C/c1ccc([N+](=O)[O-])o1 [Nitrofurazone],1.22,1.02,0.506,0.32,
Cc1ccc(N)cc1O [5-Amino-2-methylphenol],1.05,0.771,0.809,0.519,
"O=C1NC(=O)C(c2ccccc2)(c2ccccc2)N1 [5,5-Diphenylhydantoin]",0.925,1.28,1.02,0.658,
CCCCCCCCCCCCCCO [1-Tetradecanol],1.02,1.19,1.25,1.38,
CC(=O)OC1C(=O)C2(C)C(O)CC3OCC3(OC(C)=O)C2C(OC(=O)c2ccccc2)C2(O)CC(OC(=O)C(O)C(NC(=O)c3ccccc3)c3ccccc3)C(C)=C1C2(C)C (stereo unspecified) [Taxol],0.822,0.575,0.409,1.98,1.29
"Cc1c2ccccc2c(C)c2c1ccc1ccccc12 [7,12-Dimethylbenz(a)anthracene]",1.03,0.839,0.496,,
